Among the data in US4371536A, “β-Carbolin-3-carboxylic acid derivatives” (A/S Ferrosan, priority 1979, dated 1983) are LD50 and TD50 values, retold here.

A short description of data set [1]: Acute toxicity in mice (deaths within 24 hours). Conditions: mouse, in vivo. How it is done: The acute toxicity in mice was determined by recording the number of deaths within 24 hours.
The nature of data set [2]: Inhibition of motor coordination (ataxia) in mice. Conditions: mouse, in vivo, sc, 30 minutes after s.c. administration, read-out: ED50 Ataxia (Motor incoordination). On the procedure: The inhibition of motor coordination in mice was also studied 30 minutes after subcutaneous administration in accordance with a method described in the literature (Buus Lassen et al, Acta pharmacol. et toxicol., 1971, 39, 1-16).

For the compound `CN1C(=O)CN=C(c2ccccc2)c2cc(Cl)ccc21` [Diazepam, reference compound], the median lethal dose (LD50) at 24 h in data set [1] came to 80 mg/kg. Moreover, the TD50 at 0.5 h in data set [2] was 3 mg/kg.
